Test results published in PubChem BioAssay AID624291 (National Center for Advancing Translational Sciences (NCATS), 2012).
Out of some 350,000 compounds screened, about 220 (0.063%) were called active. Inconclusive results, whose numbers are uncertain, are shown with a selection of clear calls. Calls follow the shape of the dose curve; as a rule, active = well fitted activation curve with a large enough effect; inconclusive = small, poorly fitted or top-dose-only effect; inactive = no such curve, though single readings can be large or run the other way. Where the call is inconclusive, the potency comes from a doubtful curve fit.

Test: qHTS for Activators of Integrin-Mediated Alleviation for Muscular Dystrophy; also: nearly all actives have a fitted effect of over 60% in size;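 as to activation: 100% = response of the positive control SU9516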
Details: alpha7betagal myoblasts, beta-gal FDG fluorescence, 48 h; activation: at 38.3 µM (top of the series)
In short: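 alpha7betagal+/- myoblasts (passage 13, 250/well) treated 48 h at 37C with compounds at 1:260 dilution of DMSO stock. Lysed, then beta-galactosidase activity read as FDG fluorescence (ex 480/em 540) after 30 min, with pre-read for autofluorescence.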
Potency is read from the fitted curve at half-maximal effect.

SMILES | Potency | activation
Cc1ccccc1OCC(=O)Nc1ccc(C)c(S(=O)(=O)N2CCCCCC2)c1 | inconclusive: 5.01 µM [activator, single point] | 
O=C(CCc1ccc(S(=O)(=O)NCCc2ccccc2)cc1)Nc1ccc2c(c1)OCCO2 | inconclusive: 5.01 µM [activator, single point] | 
CC(=O)c1ccc(NC(=O)C2CCCNC2=O)cc1 (configuration not stated) | inconclusive: 11.2 µM [activator, single point] | 
Cc1ccc(S(=O)(=O)NC(Cc2ccccc2)C(=O)O)cc1C (configuration not stated) | inconclusive: 0.891 µM [activator, full curve, poor fit] | 
COCCn1c(C)cc(C(=O)COC(=O)c2ccc(Cl)c(S(N)(=O)=O)c2)c1C | inconclusive: 22.4 µM [activator, partial curve, poor fit] | 
CN(C)c1ccc(NC(=S)NCC2CCCO2)cc1 (configuration not stated) |  | inactive: -20%
CCOC(=O)c1c(NC(=O)c2cc3n(n2)C(C(F)(F)F)CC(c2ccccc2)N3)sc(C)c1C (configuration not stated) |  | inactive: 22.2%
COc1ccc(S(=O)(=O)NC2CCCCC2)cc1F | inconclusive: 5.01 µM [activator, single point] | 
COCCNC(=O)CCC1CCN(Cc2ccc(-c3ccccc3)cc2)CC1 |  | inactive: -36%
COc1ccc2c(C)cc(SCC(=O)NCC3CCCO3)nc2c1 (configuration not stated) | inconclusive: 28.2 µM [activator, single point] | 
O=C1C2C3C=CC(CC3)C2C(=O)N1/N=C/c1ccco1 (configuration not stated) |  | inactive: -1.64%
CC(C)(C)NC(=O)COc1coc(CN2CCN(Cc3ccccc3)CC2)cc1=O | inconclusive: 5.01 µM [activator, single point] | 
C#CCOCCOCCOCCNc1nc(N2CCN(C(=O)[C@H](CCC(=O)O)n3cc(C(N)Cc4ccc(O)cc4)nn3)CC2)nc(N2CCN(C(=O)[C@H](CCC(=O)O)n3cc(C(N)[C@H](C)CC)nn3)CC2)n1 (some centres not stated) |  | inactive: -9.53%
Cc1ccc(S(=O)(=O)c2nc(-c3cccs3)oc2NCc2cccnc2)cc1 | inconclusive: 0.891 µM [activator, full curve, poor fit] | 
CC(C)c1ccc(NC(=O)Cn2c(=O)oc3ccccc32)cc1 | inconclusive: 0.447 µM [activator, partial curve, poor fit] | 
Cc1ccc(/C=C2\SC(=S)N(CCC(=O)NNC(=O)c3ccncc3)C2=O)cc1 | inconclusive: 10 µM [activator, partial curve, poor fit] | 
COc1cc(C=NNC(=O)C(=O)Nc2cccc(Cl)c2)cc(OC)c1O |  | inactive: 8.98%
CC(C)CN1C2CCCC1CC(NC(=O)c1ccc([N+](=O)[O-])cc1)C2 (configuration not stated) | inconclusive: 5.01 µM [activator, single point] | 
CC1=CC(c2ccccc2)=Nc2ccc(C)cc2N1 |  | inactive: 3.43%
Clc1ccc(/C=N/NC2=Nc3cccc4cccc2c34)cc1 |  | inactive: -25%
C=CCNc1nc2ccccc2c(=O)[nH]1 | inconclusive: 5.01 µM [activator, single point] | 
O=c1c(Cl)c(N/N=C/c2ccc(Br)cc2)cnn1-c1ccccc1 |  | inactive: -51.2%
Cc1ccc(S(=O)(=O)N2CCSC2c2ccco2)cc1 (configuration not stated) | inconclusive: 28.2 µM [activator, single point] | 
Nc1ncc([N+](=O)[O-])c(N2CCCCCC2)n1 | inconclusive: 2.24 µM [activator, full curve, poor fit] | 

SMILES | Potency | activation
COc1cccc(CN(C)C(=S)Nc2ccc(C)c(C)c2)c1 |  | inactive: -63.9%
Cc1cc(C)c(C)c(/C=C(/C#N)C(N)=S)c1C |  | inactive: -20.8%
CC1(C)Cc2c(cnn2-c2ccc(F)cc2)C(NC(=O)CCN2CCCC2=O)C1 (configuration not stated) |  | inactive: 5.7%
CC(=O)c1ccc(N2CCN(c3ccc4cc(S(=O)(=O)N5CCC(C)CC5)ccc4n3)CC2)cc1 |  | inactive: -11.8%
Cc1cccc(Cn2c(Cc3ccccc3)nc3ccccc32)c1 |  | inactive: 2.87%
COc1ccc(Br)cc1CN1CCN(Cc2c[nH]c3ccccc23)CC1 | inconclusive: 14.1 µM [activator, partial curve, poor fit] | 
CCc1nnc(NC(=O)c2sc3nc4c(cc3c2N)CCCCC4)s1 | inconclusive: 5.01 µM [activator, full curve, poor fit] | 
CCSc1ccc([C@@H]2[C@H]3C(=O)N(CC)C(=O)[C@H]3[C@]3(C(=O)OC)CCCCN23)cc1OC |  | inactive: -2.2%
OCCNc1c2ccccc2nc2c(F)c(F)c(F)c(F)c12 |  | inactive: -38.2%
COc1cc2ccccc2cc1C(=O)N(CCN(C)C)c1nc2c(F)cc(F)cc2s1 | inconclusive: 5.01 µM [activator, partial curve, poor fit] | 
CCCCCC(=O)N1C[C@H](n2cc(COC(=O)c3ccccc3)nn2)[C@@H](O)C[C@@H]1c1ccc(C)cc1 |  | inactive: 21.2%
COc1ccc(NS(=O)(=O)c2ccc(-c3ccccn3)s2)cc1 | inconclusive: 2.82 µM [activator, single point] | 
CCOc1ccccc1NC(=O)NC1Cc2ccccc2C1 | inconclusive: 2 µM [activator, single point] | 
CC(C)c1ccc(-n2c(-c3ccccc3)c[n+]3c2CCc2ccccc2-3)cc1 |  | inconclusive: -70.8% [activator]
CCOc1ccc(NC(=O)NC23CC4CC(CC(C4)C2)C3)cc1 | inconclusive: 11.2 µM [activator, partial curve, poor fit] | 
Cc1ccc(S(=O)(=O)N2CCC3(CC2)OCCO3)cc1 | inconclusive: 3.16 µM [activator, single point] | 
Cc1cc(C)nc(/N=C(\N)Nc2ccc3c(c2)OCCO3)n1 |  | inactive: -35.3%
FC(F)(F)c1cnc(-c2cnc(-c3ccccn3)nc2)c(Cl)c1 |  | inactive: 18.2%
Cc1ccnc(NC(=O)Cn2cc([N+](=O)[O-])cn2)c1 | inconclusive: 3.16 µM [activator, partial curve, poor fit] | 
O=C(NCCCN1CCOCC1)Nc1ccc(Cc2ccc(NC(=O)NCCCN3CCOCC3)cc2)cc1 | inconclusive: 14.1 µM [activator, single point] | 
C/C(=N\NC(=O)c1ccccc1)c1ccccc1F | inconclusive: 10 µM [activator, single point] | 
CCOC(=O)c1sc(NC(=O)CN2C(=O)c3cccc4cccc(c34)C2=O)nc1C |  | inactive: 2.91%
COc1ccc(C(CNC(=O)COc2ccc(Cl)cc2C)N2CCCCC2)cc1 (configuration not stated) | inconclusive: 28.2 µM [activator, single point] | 
O=C(NCc1cnc2ccccn12)C1CCC(=O)N(Cc2cccc(F)c2)C1 (configuration not stated) |  | inactive: -1.2%

Another view of some results above:
O=C(NCCCN1CCOCC1)Nc1ccc(Cc2ccc(NC(=O)NCCCN3CCOCC3)cc2)cc1
  Potency: inconclusive: 14.1 µM [activator, single point]
C/C(=N\NC(=O)c1ccccc1)c1ccccc1F
  Potency: inconclusive: 10 µM [activator, single point]

Going on with the list:

SMILES | Potency | activation
OCCC1CN(CCCn2cccn2)CCN1C1CCCCC1 (configuration not stated) |  | inactive: 0%
Cc1cccc(NC(=O)c2ccc3c(c2)C(=O)N(c2ccccn2)C3=O)c1C | inconclusive: 28.2 µM [activator, single point] | 
Cc1cc(OCC(=O)OCC(=O)NC2CCCCCC2)ccc1Cl | inconclusive: 2.82 µM [activator, partial curve, poor fit] | 
CCN(CC)CCNC(=O)c1ccc(NC(=O)c2ccc(F)cc2)cc1 | inconclusive: 3.55 µM [activator, single point] | 
COc1ccc(OC)c(C2CC(c3ccc(NS(C)(=O)=O)cc3)=NN2C(=O)c2ccccc2)c1 (configuration not stated) | inconclusive: 3.98 µM [activator, single point] | 
CN1CCN(/C=N/c2c(C#N)cnn2-c2ccccc2)CC1 |  | inactive: -7.6%
C=CC(=O)Nc1cccc(Oc2ccnc(Nc3ccc(N4CCN(C)CC4)cc3)n2)c1 |  | inactive: -33.6%
CCCCNC(=O)c1cccc(S(=O)(=O)N2CC3(C)CC2CC(C)(C)C3)c1 (configuration not stated) |  | inactive: 2.56%
CCOc1ccc(N(CC(=O)NCCc2ccc(Cl)cc2)S(=O)(=O)c2c(C)[nH]c(=O)[nH]c2=O)cc1 |  | inactive: -1.53%
CC(=O)N/C(=N/c1nc(C)cc(C)n1)Nc1ccc(F)cc1F | inconclusive: 10 µM [activator, single point] | 
O=C(Nc1ccc([N+](=O)[O-])cc1)C(Cc1ccccc1)N1C(=O)c2cccc3cccc(c23)C1=O (configuration not stated) |  | inactive: -54.9%
COc1ccc(CNC(=O)C(OC(=O)c2cccs2)C(C)C)cc1 (configuration not stated) | inconclusive: 1.78 µM [activator, partial curve, poor fit] | 
CCOC(=O)N1CCN(S(=O)(=O)c2ccc(OCC)c(C)c2)CC1 |  | inactive: 14.9%
COc1ccccc1N1CCN(CC(=O)N2N=CCC2c2ccccc2)CC1 (configuration not stated) |  | inactive: 25.1%
Cc1ccccc1NC(=O)COc1ccc(S(=O)(=O)N2CCCC2)cc1C | inconclusive: 1 µM [activator, full curve, poor fit] | 
O=S(=O)(c1ccc(Cl)nc1)N1CCc2ccccc21 | inconclusive: 5.01 µM [activator, single point] | 
Cn1cccc1C(=O)Nc1nc(-c2ccccn2)cs1 |  | inactive: -35.7%
CN(C)c1ccc(NC(=O)C2CCCN(S(=O)(=O)c3ccccc3)C2)cc1 (configuration not stated) | inconclusive: 3.16 µM [activator, single point] | 
Cc1ccc(S(=O)(=O)N2CCN(c3nc(CN4CCCC4)nc4sc(C)c(C)c34)CC2)cc1 |  | inactive: -50.1%
Cc1ccc(-c2cc(C(F)F)nc(NCc3cccnc3)n2)cc1 |  | inactive: -18.8%
OCCn1cnc2c(SCc3ccccc3)ncnc21 | inconclusive: 3.55 µM [activator, single point] | 
COc1cc(C2CC(=O)Oc3c(C(CCN4CCOCC4)c4ccc(N(C)C)cc4)c(OC)cc(OC)c32)cc(OC)c1OC (configuration not stated) |  | inactive: 21.4%
CCN(CC)S(=O)(=O)c1ccc(-c2nnc(SCC(=O)Nc3nnc(C)s3)n2CC)cc1 | inconclusive: 10 µM [activator, partial curve, poor fit] | 
Cc1ccc(CNS(=O)(=O)NCc2ccc(Cl)cc2)cc1 | inconclusive: 22.4 µM [activator, single point] | 

One compound at a time, as listed above:
`CN1CCN(/C=N/c2c(C#N)cnn2-c2ccccc2)CC1` reads activation: inactive: -7.6%
`Cn1cccc1C(=O)Nc1nc(-c2ccccn2)cs1` reads activation: inactive: -35.7%
`CCN(CC)CCNC(=O)c1ccc(NC(=O)c2ccc(F)cc2)cc1` reads Potency: inconclusive: 3.55 µM [activator, single point]
`COc1ccccc1N1CCN(CC(=O)N2N=CCC2c2ccccc2)CC1` (configuration not stated) reads activation: inactive: 25.1%
